These are yes or no findings as the source states them, for the method shown. Binding seen in cells or lysates may run through a third protein. Some results given as binding are weak or reduced against the parent protein; the word gives no strength. For part of these data: Sequences can lack the tags named with a protein.
Tests used:
[1] = biological target: Estrogen Receptor alpha (ERalpha), in vitro translated and [35S]-methionine-labeled (UniProt P03372); experiment: GST pull-down of in vitro translated [35S]-ERα with vehicle, E2, TOT or ICI; autoradiograph
[2] = biological target: Estrogen Receptor alpha (ERalpha), in vitro translated and [35S]-methionine-labeled (UniProt P03372); experiment: GST pull-down of in vitro transcribed and translated [35S]-ERα
[3] = biological target: Estrogen Receptor alpha (ERalpha), in vitro translated and [35S]-methionine-labeled (UniProt P03372); experiment: summary of the GST pull-down results

Protein sequences, listed by entry. Tags and fused reporters are not part of them.
UniProt P03372: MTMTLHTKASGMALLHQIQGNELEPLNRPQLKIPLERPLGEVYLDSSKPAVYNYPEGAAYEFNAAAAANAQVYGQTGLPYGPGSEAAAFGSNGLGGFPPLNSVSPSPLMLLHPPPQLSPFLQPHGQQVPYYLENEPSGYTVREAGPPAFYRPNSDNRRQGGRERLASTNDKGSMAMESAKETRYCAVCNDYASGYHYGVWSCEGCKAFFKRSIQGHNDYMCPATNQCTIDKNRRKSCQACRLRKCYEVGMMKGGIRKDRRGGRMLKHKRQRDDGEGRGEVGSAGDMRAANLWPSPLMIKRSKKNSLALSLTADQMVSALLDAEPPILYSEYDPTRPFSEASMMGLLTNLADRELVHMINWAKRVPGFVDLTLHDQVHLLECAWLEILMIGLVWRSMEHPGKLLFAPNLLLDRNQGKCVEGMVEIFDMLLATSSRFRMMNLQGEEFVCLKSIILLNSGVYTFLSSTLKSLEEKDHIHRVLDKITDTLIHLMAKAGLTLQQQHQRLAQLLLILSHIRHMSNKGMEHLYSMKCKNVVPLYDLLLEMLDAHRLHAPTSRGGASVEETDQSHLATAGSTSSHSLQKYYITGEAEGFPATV

binding [1]	binding [2]	binding [3]	Binder
binds	binds		glutathione-S-transferase (GST) fusion protein wherein GST was fused to ERCoA3 (protein, not shown: a dimerising Fc or GST) MCGRPRRVSAGCGFADAHWTGLWTGLGEGQEGGIGPEGQASPTPDCASRWPRSASRWPWSAGLTVRDRPQLGELCMGRG
		binds	Estrogen Receptor Coregulator 3 (ERCoA3) protein (protein) MCGRPRRVSAGCGFADAHWTGLWTGLGEGQEGGIGPEGQASPTPDCASRWPRSASRWPWSAGLTVRDRPQLGELCMGRG

From patent US7459543B2, “Modulators of antiestrogen pharmacology” (priority 2000, dated 2008)
